Common to all, as to assay: ELISA; receptor-Fc coated on the plate (IL-17RA-Fc 2 ug/mL, the others 1 ug/mL in PBS); biotinylated cytokine (IL-17A 250 ng/mL; IL-17C, IL-17E, IL-17F 100 ng/mL) pre-incubated 1 h with peptide (0.128 nM to 10,000 nM), then 30 min at RT on the plate; streptavidin-HRP; percent inhibition; both purified
Assay [1] has as its target T1, IL-17RE-Fc (UniProt Q8NFR9).
T1 sequence: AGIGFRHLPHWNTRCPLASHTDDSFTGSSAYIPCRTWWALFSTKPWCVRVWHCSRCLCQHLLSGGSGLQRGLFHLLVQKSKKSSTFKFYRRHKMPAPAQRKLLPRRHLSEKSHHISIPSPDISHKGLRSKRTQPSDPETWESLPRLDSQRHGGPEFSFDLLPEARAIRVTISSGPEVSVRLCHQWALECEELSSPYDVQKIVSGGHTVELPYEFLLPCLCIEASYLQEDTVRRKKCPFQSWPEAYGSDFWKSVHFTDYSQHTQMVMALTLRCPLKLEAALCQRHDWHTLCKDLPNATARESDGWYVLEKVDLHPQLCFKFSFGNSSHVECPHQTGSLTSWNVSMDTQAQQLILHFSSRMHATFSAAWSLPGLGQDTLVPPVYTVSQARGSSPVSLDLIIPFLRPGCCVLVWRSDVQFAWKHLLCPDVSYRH

The target of assay [2] is T2, IL-17RB-Fc (UniProt Q9NRM6).
T2 sequence: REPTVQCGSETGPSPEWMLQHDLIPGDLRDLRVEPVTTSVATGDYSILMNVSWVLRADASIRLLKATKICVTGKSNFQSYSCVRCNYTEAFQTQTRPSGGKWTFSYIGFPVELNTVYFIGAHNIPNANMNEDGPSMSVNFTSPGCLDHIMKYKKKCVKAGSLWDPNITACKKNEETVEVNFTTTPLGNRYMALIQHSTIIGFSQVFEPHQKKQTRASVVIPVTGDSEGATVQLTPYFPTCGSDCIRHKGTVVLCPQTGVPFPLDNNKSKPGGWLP

Assay [3] has as its target T3, IL-17RC-Fc (UniProt Q8NAC3).
T3 sequence: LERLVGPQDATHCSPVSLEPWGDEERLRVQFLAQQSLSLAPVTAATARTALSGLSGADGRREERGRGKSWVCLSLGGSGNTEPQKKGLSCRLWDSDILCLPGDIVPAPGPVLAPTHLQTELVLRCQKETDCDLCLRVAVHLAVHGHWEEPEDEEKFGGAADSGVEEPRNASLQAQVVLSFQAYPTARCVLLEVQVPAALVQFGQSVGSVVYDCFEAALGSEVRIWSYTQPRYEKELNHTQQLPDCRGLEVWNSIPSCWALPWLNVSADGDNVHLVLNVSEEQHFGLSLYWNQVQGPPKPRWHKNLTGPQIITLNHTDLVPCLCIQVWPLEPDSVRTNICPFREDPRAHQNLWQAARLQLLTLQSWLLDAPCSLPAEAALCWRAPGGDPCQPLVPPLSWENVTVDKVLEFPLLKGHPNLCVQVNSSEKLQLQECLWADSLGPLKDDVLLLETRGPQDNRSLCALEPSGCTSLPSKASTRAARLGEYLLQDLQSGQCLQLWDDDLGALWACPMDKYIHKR

The results in this text go back to publication PMC5766103 (PLoS ONE, 2018).

No constants are given. Whether binding was seen depends on the method and setting. Some binding calls cover weakened binding; strength is not graded here. Where a sequence is shown, tags or fusion partners need not be part of it.

B1: human IL-17C (#1234-IL; R&D Systems) (ligand, UniProt Q9P0M4 19-197)
chain: HHDPSLRGHPHSHGTPHCYSAEELPLGQAPPHLLARGAKWGQALPVALVSSLEAASHRGRHERPSATTQCPVLRPEEVLEADTHQRSISPWRYRVDTDEDRYPQKLAFAECLCRGCIDARTGRETAALNSVRLLQSLLVLRRRPCSRDGSGLPTPGAFAFHTEFIHVPVGCTCVLPRSV
modifications: biotin (EZ Link NHS-Biotin)
Turning to B1, the binding entry in assay [1] was “binds”.

B2: human IL-17E (#1258-IL; R&D Systems) (ligand, UniProt Q9H293 33-177)
chain: YSHWPSCCPSKGQDTSEELLRWSTVPVPPLEPARPNRHPESCRASEDGPLNSRAISPWRYELDRDLNRLPQDLYHARCLCPHCVSLQTGSHMDPRGNSELLYHNQTVFYRRPCHGEKGTHKGYCLERRLYRVSLACVCVRPRVMG
modifications: biotin (EZ Link NHS-Biotin)
As for B2, the binding entry in assay [2] is recorded as “binds”.

B3: human IL-17F (#1335-IL; R&D Systems) (ligand, UniProt Q96PD4 31-163)
chain: RKIPKVGHTFFQKPESCPPVPGGSMKLDIGIINENQRVSMSRNIESRSTSPWNYTVTWDPNRYPSEVVQAQCRNLGCINAQGKEDISMNSVPIQQETLVVRRKHQGCSVSFQLEKVLVTVGCTCVTPVIHHVQ
modifications: biotin (EZ Link NHS-Biotin)
Consider B3, for which the binding result in assay [3] is on record as “binds”.
